Measured values as given in patent publication US5451518A, “Purified human ceramide-activated protein kinase” (Sloan-Kettering Institute for Cancer Research, priority 1992, dated 1995).
For at least one compound, name, drawing or mass did not settle the structure.

Tested on: ceramide-activated protein kinase
Details: HL-60; cholera toxin 10 nM, retinoic acid 0.5 μM, butyrate 0.5 mM

SMILES: CCCC(=O)O [butyrate]
- effect on kinase activity (in words): not stimulated
